The results in this text go back to paper PMC2932728, “The Canine Papillomavirus and Gamma HPV E7 Proteins Use an Alternative Domain to Bind and Destabilize the Retinoblastoma Protein” (PLoS Pathogens, 2010).

For experiment [1], the target named is T1, pRb expressed from RcCMV-Rb (UniProt P06400).
T1 sequence: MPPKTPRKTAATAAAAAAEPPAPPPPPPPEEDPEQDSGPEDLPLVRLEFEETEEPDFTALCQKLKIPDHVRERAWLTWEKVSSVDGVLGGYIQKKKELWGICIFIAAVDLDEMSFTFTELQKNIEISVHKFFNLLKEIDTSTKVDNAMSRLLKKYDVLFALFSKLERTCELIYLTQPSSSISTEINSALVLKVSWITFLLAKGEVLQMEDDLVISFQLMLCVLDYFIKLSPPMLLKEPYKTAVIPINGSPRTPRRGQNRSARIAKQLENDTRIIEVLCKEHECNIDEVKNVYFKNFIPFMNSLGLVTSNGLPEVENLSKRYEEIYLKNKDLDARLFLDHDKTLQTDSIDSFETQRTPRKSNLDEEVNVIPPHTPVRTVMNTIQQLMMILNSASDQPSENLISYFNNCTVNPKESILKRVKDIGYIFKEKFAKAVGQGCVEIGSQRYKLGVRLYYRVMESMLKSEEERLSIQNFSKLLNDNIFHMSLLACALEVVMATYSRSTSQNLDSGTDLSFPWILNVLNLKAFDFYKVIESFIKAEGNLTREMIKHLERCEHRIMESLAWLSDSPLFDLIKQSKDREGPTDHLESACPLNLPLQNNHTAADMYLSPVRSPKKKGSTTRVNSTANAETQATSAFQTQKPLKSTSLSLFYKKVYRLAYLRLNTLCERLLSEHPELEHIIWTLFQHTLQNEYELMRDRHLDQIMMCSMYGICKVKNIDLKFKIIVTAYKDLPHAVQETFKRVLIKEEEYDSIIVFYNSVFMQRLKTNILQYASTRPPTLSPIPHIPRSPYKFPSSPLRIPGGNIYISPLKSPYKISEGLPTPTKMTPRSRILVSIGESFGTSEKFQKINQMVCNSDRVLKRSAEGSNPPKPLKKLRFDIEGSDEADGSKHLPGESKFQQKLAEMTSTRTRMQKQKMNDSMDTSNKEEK
As to the kind of experiment: co-IP; U2OS cells co-transfected with RcCMV-Rb and N-terminal HA-tagged E7 constructs; RIPA lysate; precipitated with polyclonal anti-pRb antibody, blotted with anti-pRb and anti-HA.

Experiment [2] concerns the target GST CPV-2 E7 S26C (canine papillomavirus type 2 (CPV-2)). Put plainly: pull-down; 5 µg GST fusion protein with 50 µg Jurkat cell nuclear extract, 1 h at 4°C in 20 mM Hepes/150 mM KCl/4 mM MgCl2/1 mM EDTA/0.02% Nonidet P-40/10% glycerol; glutathione-Sepharose beads; Western blot for pRb and GST, densitometry normalised to GSTE7, wild type CPV-2 E7 set to 100%; only the target purified. A general note: In western blotting, separated proteins are transferred to a membrane and probed.

The target of experiment [3] is GST CPV-2 E7 S26G (canine papillomavirus type 2 (CPV-2)). The experiment is described as above.
The target in experiment [4] is GST CPV-2 E7 ΔLXSXE (canine papillomavirus type 2 (CPV-2)). The description is as above.
The target of experiment [5] is GST HPV-4 E7 carboxyl-terminal domain (human papillomavirus type 4 (HPV-4)). The experiment is described as above.

Results are given in words; binding and its absence hold for the method and conditions named. Binding seen in cells or lysates may run through a third protein. A result given as binding can be weak or reduced; the word gives no strength.

For the molecule “HA-tagged CPV-2 E7 wild type (N-terminal HA) (canine papillomavirus type 2 (CPV-2))”, in experiment [1], the binding entry is recorded as “binds”.
As to “HA-tagged CPV-2 E7 carboxy-terminal domain (N-terminal HA) (canine papillomavirus type 2 (CPV-2)) (domain or fragment)”, the binding result in experiment [1] is “binds”.
On to “HA-tagged CPV-2 E7 ΔLXSXE (N-terminal HA) (canine papillomavirus type 2 (CPV-2))”, for which, in experiment [1], the binding entry is on record as “binds”.

B1: human retinoblastoma tumor suppressor protein pRb (natural protein, human (endogenous in Jurkat), UniProt P06400 1-928, looked up)
chain: T1 sequence
notes: retinoblastoma protein pRb, human, endogenous in Jurkat cell nuclear extract; also called human pRb; source: endogenous, Jurkat cell nuclear extract
In the case of B1, the binding entry in experiment [2], in experiment [3], in experiment [4] and in experiment [5] was “binds” each time.
